Results from patent US20250283871A1, “COMPOSITIONS AND METHODS FOR MODULATING THE INTERACTION BETWEEN SS18-SSX FUSION ONCOPROTEIN AND NUCLEOSOMES” (Dana-Farber Cancer Institute, Inc., priority 2020, published 2025).

Test system: BAF complex subunits and histone proteins
Test: Mass spectrometry proteomics of purified HA-SS18 WT and HA-SS18-SSX1 complexes (Tables 5A-5E)
Parameters: species or system human
Details: HEK-293T
[1] = HA-SS18WT_CHR_peptides: HA-SS18 WT purification from nuclease-treated solubilized chromatin (CHR), label = protein identified
[2] = HA-SS18SSX1 purification, NE (soluble nuclear extract) fraction, peptides per identified protein
[3] = HA-SS18WT_NE_peptides: HA-SS18 WT complexes purified from nuclear extract (NE), label = protein identified (Gene Symbol)
[4] = HA-SS18WT_CHR_peptides: protein identified in HA-SS18 WT BAF complex purification from nuclease-treated solubilized chromatin (CHR)

B1: BPIFB1 (protein, UniProt Q8TDL5 22-484, looked up)
BPI fold-containing family B …: TLSPTAVLILGPKVIKEKLTQELKDHNATSILQQLPLLSAMREKPAGGIPVLGSLVNTVLKHIIWLKVITANILQLQVKPSANDQELLVKIPLDMVAGFNTPLVKTIVEFHMTTEAQATIRMDTSASGPTRLVLSDCATSHGSLRIQLLHKLSFLVNALAKQVMNLLVPSLPNLVKNQLCPVIEASFNGMYADLLQLVKVPISLSIDRLEFDLLYPAIKGDTIQLYLGAKLLDSQGKVTKWFNNSAASLTMPTLDNIPFSLIVSQDVVKAAVAAVLSPEEFMVLLDSVLPESAHRLKSSIGLINEKAADKLGSTQIVKILTQDTPEFFIDQGHAKVAQLIVLEVFPSSEALRPLFTLGIEASSEAQFYTKGDQLILNLNNISSDRIQLMNSGIGWFQPDVLKNIITEIIHSILLPNQNGKLRSGVPVSLVKALGFEAAESSLTKDALVLTPASLWKPSSPVSQ
- Total (peptides) [1]: 7
- Unique (peptides) [1]: 7

B2: STAU1 (protein, UniProt O95793 2-577, looked up)
Double-stranded RNA-binding …: SQVQVQVQNPSAALSGSQILNKNQSLLSQPLMSIPSTTSSLPSENAGRPIQNSALPSASITSTSAAAESITPTVELNALCMKLGKKPMYKPVDPYSRMQSTYNYNMRGGAYPPRYFYPFPVPPLLYQVELSVGGQQFNGKGKTRQAAKHDAAAKALRILQNEPLPERLEVNGRESEEENLNKSEISQVFEIALKRNLPVNFEVARESGPPHMKNFVTKVSVGEFVGEGEGKSKKISKKNAAIAVLEELKKLPPLPAVERVKPRIKKKTKPIVKPQTSPEYGQGINPISRLAQIQQAKKEKEPEYTLLTERGLPRRREFVMQVKVGNHTAEGTGTNKKVAKRNAAENMLEILGFKVPQAQPTKPALKSEEKTPIKKPGDGRKVTFFEPGSGDENGTSNKEDEFRMPYLSHQQLPAGILPMVPEVAQAVGVSQGHHTKDFTRAAPNPAKATVTAMIARELLYGGTSPTAETILKNNISSGHVPHGPLTRPSEQLDYLSRVQGFQVEYKDFPKNNKNEFVSLINCSSQPPLISHGIGKDVESCHDMAALNILKLLSELDQQSTEMPRTGNGPMSVCGRC
- Total (peptides) [1]: 3
- Unique (peptides) [1]: 3

B3: ALDH1B1 (protein, UniProt P30837 18-517, looked up)
Aldehyde dehydrogenase X, …: RYSSAAALPSPILNPDIPYNQLFINNEWQDAVSKKTFPTVNPTTGEVIGHVAEGDRADVDRAVKAAREAFRLGSPWRRMDASERGRLLNRLADLVERDRVYLASLETLDNGKPFQESYALDLDEVIKVYRYFAGWADKWHGKTIPMDGQHFCFTRHEPVGVCGQIIPWNFPLVMQGWKLAPALATGNTVVMKVAEQTPLSALYLASLIKEAGFPPGVVNIITGYGPTAGAAIAQHVDVDKVAFTGSTEVGHLIQKAAGDSNLKRVTLELGGKSPSIVLADADMEHAVEQCHEALFFNMGQCCCAGSRTFVEESIYNEFLERTVEKAKQRKVGNPFELDTQQGPQVDKEQFERVLGYIQLGQKEGAKLLCGGERFGERGFFIKPTVFGGVQDDMRIAKEEIFGPVQPLFKFKKIEEVVERANNTRYGLAAAVFTRDLDKAMYFTQALQAGTVWVNTYNIVTCHTPFGGFKESGNGRELGEDGLKAYTEVKTVTIKVPQKNS
- Total (total peptides) [2]: 9
- Unique (unique peptides) [2]: 9
- Total (peptides) [3]: 13
- Unique (peptides) [3]: 12

B4: YME1L1 (protein, UniProt Q96TA2 1-773, looked up)
ATP-dependent zinc …: MFSLSSTVQPQVTVPLSHLINAFHTPKNTSVSLSGVSVSQNQHRDVVPEHEAPSSECMFSDFLTKLNIVSIGKGKIFEGYRSMFMEPAKRMKKSLDTTDNWHIRPEPFSLSIPPSLNLRDLGLSELKIGQIDQLVENLLPGFCKGKNISSHWHTSHVSAQSFFENKYGNLDIFSTLRSSCLYRHHSRALQSICSDLQYWPVFIQSRGFKTLKSRTRRLQSTSERLAETQNIAPSFVKGFLLRDRGSDVESLDKLMKTKNIPEAHQDAFKTGFAEGFLKAQALTQKTNDSLRRTRLILFVLLLFGIYGLLKNPFLSVRFRTTTGLDSAVDPVQMKNVTFEHVKGVEEAKQELQEVVEFLKNPQKFTILGGKLPKGILLVGPPGTGKTLLARAVAGEADVPFYYASGSEFDEMFVGVGASRIRNLFREAKANAPCVIFIDELDSVGGKRIESPMHPYSRQTINQLLAEMDGFKPNEGVIIIGATNFPEALDNALIRPGRFDMQVTVPRPDVKGRTEILKWYLNKIKFDQSVDPEIIARGTVGFSGAELENLVNQAALKAAVDGKEMVTMKELEFSKDKILMGPERRSVEIDNKNKTITAYHESGHAIIAYYTKDAMPINKATIMPRGPTLGHVSLLPENDRWNETRAQLLAQMDVSMGGRVAEELIFGTDHITTGASSDFDNATKIAKRMVTKFGMSEKLGVMTYSDTGKLSPETQSAIEQEIRILLRDSYERAKHILKTHAKEHKNLAEALLTYETLDAKEIQIVLEGKKLEVR
- Total (total peptides) [2]: 9
- Unique (unique peptides) [2]: 9
- Total (peptides) [3]: 6
- Unique (peptides) [3]: 6

B5: GBP1 (protein, UniProt P32455 1-589, looked up)
Guanylate-binding protein 1: MASEIHMTGPMCLIENTNGRLMANPEALKILSAITQPMVVVAIVGLYRTGKSYLMNKLAGKKKGFSLGSTVQSHTKGIWMWCVPHPKKPGHILVLLDTEGLGDVEKGDNQNDSWIFALAVLLSSTFVYNSIGTINQQAMDQLYYVTELTHRIRSKSSPDENENEVEDSADFVSFFPDFVWTLRDFSLDLEADGQPLTPDEYLTYSLKLKKGTSQKDETFNLPRLCIRKFFPKKKCFVFDRPVHRRKLAQLEKLQDEELDPEFVQQVADFCSYIFSNSKTKTLSGGIQVNGPRLESLVLTYVNAISSGDLPCMENAVLALAQIENSAAVQKAIAHYEQQMGQKVQLPTETLQELLDLHRDSEREAIEVFIRSSFKDVDHLFQKELAAQLEKKRDDFCKQNQEASSDRCSALLQVIFSPLEEEVKAGIYSKPGGYRLFVQKLQDLKKKYYEEPRKGIQAEEILQTYLKSKESMTDAILQTDQTLTEKEKEIEVERVKAESAQASAKMLQEMQRKNEQMMEQKERSYQEHLKQLTEKMENDRVQLLKEQERTLALKLQEQEQLLKEGFQKESRIMKNEIQDLQTKMRRRKAC
- Total (total peptides) [4]: 2
- Unique (unique peptides) [4]: 2

B6: CAT (protein, UniProt P04040 2-527, looked up)
Catalase: ADSRDPASDQMQHWKEQRAAQKADVLTTGAGNPVGDKLNVITVGPRGPLLVQDVVFTDEMAHFDRERIPERVVHAKGAGAFGYFEVTHDITKYSKAKVFEHIGKKTPIAVRFSTVAGESGSADTVRDPRGFAVKFYTEDGNWDLVGNNTPIFFIRDPILFPSFIHSQKRNPQTHLKDPDMVWDFWSLRPESLHQVSFLFSDRGIPDGHRHMNGYGSHTFKLVNANGEAVYCKFHYKTDQGIKNLSVEDAARLSQEDPDYGIRDLFNAIATGKYPSWTFYIQVMTFNQAETFPFNPFDLTKVWPHKDYPLIPVGKLVLNRNPVNYFAEVEQIAFDPSNMPPGIEASPDKMLQGRLFAYPDTHRHRLGPNYLHIPVNCPYRARVANYQRDGPMCMQDNQGGAPNYYPNSFGAPEQQPSALEHSIQYSGEVRRFNTANDDNVTQVRAFYVNVLNEEQRKRLCENIAGHLKDAQIFIQKKAVKNFTEVHPDYGSHIQALLDKYNAEKPKNAIHTFVQSGSHLAAREKANL
- Total (total peptides) [4]: 2
- Unique (unique peptides) [4]: 2

B7: TXN (protein, UniProt P10599 2-105, looked up)
Thioredoxin: VKQIESKTAFQEALDAAGDKLVVVDFSATWCGPCKMIKPFFHSLSEKYSNVIFLEVDVDDCQDVASECEVKCMPTFQFFKKGQKVGEFSGANKEKLEATINELV
- Total (total peptides) [4]: 2
- Unique (unique peptides) [4]: 2

B8: PCK2 (protein, UniProt Q16822 33-640, looked up)
Phosphoenolpyruvate …: LSGDLGQLPTGIRDFVEHSARLCQPEGIHICDGTEAENTATLTLLEQQGLIRKLPKYNNCWLARTDPKDVARVESKTVIVTPSQRDTVPLPPGGARGQLGNWMSPADFQRAVDERFPGCMQGRTMYVLPFSMGPVGSPLSRIGVQLTDSAYVVASMRIMTRLGTPVLQALGDGDFVKCLHSVGQPLTGQGEPVSQWPCNPEKTLIGHVPDQREIISFGSGYGGNSLLGKKCFALRIASRLARDEGWLAEHMLILGITSPAGKKRYVAAAFPSACGKTNLAMMRPALPGWKVECVGDDIAWMRFDSEGRLRAINPENGFFGVAPGTSATTNPNAMATIQSNTIFTNVAETSDGGVYWEGIDQPLPPGVTVTSWLGKPWKPGDKEPCAHPNSRFCAPARQCPIMDPAWEAPEGVPIDAIIFGGRRPKGVPLVYEAFNWRHGVFVGSAMRSESTAAAEHKGKIIMHDPFAMRPFFGYNFGHYLEHWLSMEGRKGAQLPRIFHVNWFRRDEAGHFLWPGFGENARVLDWICRRLEGEDSARETPIGLVPKEGALDLSGLRAIDTTQLFSLPKDFWEQEVRDIRSYLTEQVNQDLPKEVLAELEALERRVHKM
- Total (total peptides) [2]: 9
- Unique (unique peptides) [2]: 9
- Total (peptides) [3]: 7
- Unique (peptides) [3]: 7

B9: PPAN (protein, UniProt Q9NQ55 1-473, looked up)
Suppressor of SWI4 1 homolog: MGQSGRSRHQKRARAQAQLRNLEAYAANPHSFVFTRGCTGRNIRQLSLDVRRVMEPLTASRLQVRKKNSLKDCVAVAGPLGVTHFLILSKTETNVYFKLMRLPGGPTLTFQVKKYSLVRDVVSSLRRHRMHEQQFAHPPLLVLNSFGPHGMHVKLMATMFQNLFPSINVHKVNLNTIKRCLLIDYNPDSQELDFRHYSIKVVPVGASRGMKKLLQEKFPNMSRLQDISELLATGAGLSESEAEPDGDHNITELPQAVAGRGNMRAQQSAVRLTEIGPRMTLQLIKVQEGVGEGKVMFHSFVSKTEEELQAILEAKEKKLRLKAQRQAQQAQNVQRKQEQREAHRKKSLEGMKKARVGGSDEEASGIPSRTASLELGEDDDEQEDDDIEYFCQAVGEAPSEDLFPEAKQKRLAKSPGRKRKRWEMDRGRGRLCDQKFPKTKDKSQGAQARRGPRGASRDGGRGRGRGRPGKRVA
- Total (peptides) [1]: 3
- Unique (peptides) [1]: 3

B10: BPIFA1 (protein, UniProt Q9NP55 20-256, looked up)
BPI fold-containing family A …: QFGGLPVPLDQTLPLNVNPALPLSPTGLAGSLTNALSNGLLSGGLLGILENLPLLDILKPGGGTSGGLLGGLLGKVTSVIPGLNNIIDIKVTDPQLLELGLVQSPDGHRLYVTIPLGIKLQVNTPLVGASLLRLAVKLDITAEILAVRDKQERIHLVLGDCTHSPGSLQISLLDGLGPLPIQGLLDSLTGILNKVLPELVQGNVCPLVNEVLRGLDITLVHDIVNMLIHGLQFVIKV
- Total (total peptides) [4]: 2
- Unique (unique peptides) [4]: 2

B11: MTCH2 (protein, UniProt Q9Y6C9 2-303, looked up)
Mitochondrial carrier homolog …: ADAASQVLLGSGLTILSQPLMYVKVLIQVGYEPLPPTIGRNIFGRQVCQLPGLFSYAQHIASIDGRRGLFTGLTPRLCSGVLGTVVHGKVLQHYQESDKGEELGPGNVQKEVSSSFDHVIKETTREMIARSAATLITHPFHVITLRSMVQFIGRESKYCGLCDSIITIYREEGILGFFAGLVPRLLGDILSLWLCNSLAYLVNTYALDSGVSTMNEMKSYSQAVTGFFASMLTYPFVLVSNLMAVNNCGLAGGCPPYSPIYTSWIDCWCMLQKEGNMSRGNSLFFRKVPFGKTYCCDLKMLI
- Total (total peptides) [4]: 2
- Unique (unique peptides) [4]: 2
